The list does not hold the whole screen: it gathers tests that were run many times, whatever their T/C, doses with no T/C, and many T/C values between a quarter and a half above the control. Other doses and runs of a compound stand elsewhere. T/C is the treated group as % of the vehicle group. Some doses have a count of surviving animals in place of a T/C: the source files T/C as zero there, which appears to mark a toxic dose or a test without result, not a measured value. Some survivor counts are full or nearly so, which does not show that the dose was tolerated: survival well below the control is almost never listed, so the zero probably covers shortened survival too. Counts of survivors are from the toxicity check (mostly the fifth day) where no day follows; animals may have died later. Schedules are NCI's codes, read here as Q, the interval in days (D) or hours (H), X, the number of doses. Some entries were tested several times; their values stand side by side, smallest first. Counts like (3×) count equal records among those shown. Where survival is the endpoint, this PubChem deposit counts one and a half times the control or more as active, and values a quarter to a half above the control carry no call in these data; other NCI protocols may use other cut-offs. Some T/C values carry the count of animals alive at the toxicity check (mostly the fifth day); where none is given, no animal had died by that day.
Test system: BDF1 mice, P388 leukemia ip, median survival T/C
Assay: NCI In Vivo Anticancer Drug Screen. Data for tumor model P388 Leukemia (intraperitoneal) in B6D2F1 (BDF1) mice
Conditions: T/C endpoint: median survival time, higher T/C = longer survival
In short: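 Transplantable tumour in mice; compound vs vehicle dosing; survival scored; ratio of treated to control reported.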

[1] = dose: 100.0 mg/kg/injection, schedule: Q01DX009 (ip), vehicle: Klucel (hydroxypropylcellulose) (HPC)
[2] = dose: 200.0 mg/kg/injection, schedule: Q01DX009 (ip), vehicle: Klucel (hydroxypropylcellulose) (HPC)
[3] = dose: 100.0 mg/kg/injection, schedule: Q01DX009 (ip), vehicle: saline
[4] = dose: 200.0 mg/kg/injection, schedule: Q04DX003 (ip), vehicle: Klucel (hydroxypropylcellulose) (HPC)
[5] = dose: 400.0 mg/kg/injection, schedule: Q04DX003 (ip), vehicle: Klucel (hydroxypropylcellulose) (HPC)
[6] = dose: 25.0 mg/kg/injection, schedule: Q01DX009 (ip), vehicle: saline
[7] = dose: 50.0 mg/kg/injection, schedule: Q01DX009 (ip), vehicle: saline
[8] = dose: 400.0 mg/kg/injection, schedule: Q01DX009 (ip), vehicle: Klucel (hydroxypropylcellulose) (HPC)
[9] = dose: 400.0 mg/kg/injection, schedule: Q04DX003 (ip), vehicle: saline with Tween-80
[10] = dose: 50.0 mg/kg/injection, schedule: Q01DX009 (ip), vehicle: saline with Tween-80

Structure (SMILES): Cc1ccc(S(=O)(=O)N/N=C/C(=O)O)cc1
- T/C (dose: 12.5 mg/kg/injection, schedule: Q01DX009 (ip), vehicle: Klucel (hydroxypropylcellulose) (HPC)): 128 % of control
- T/C (dose: 12.5 mg/kg/injection, schedule: Q01DX009 (ip), vehicle: other): 128 and 135 % of control
- T/C (dose: 25.0 mg/kg/injection, schedule: Q01DX009 (ip), vehicle: Klucel (hydroxypropylcellulose) (HPC)): 141 and 149 % of control
- T/C (dose: 25.0 mg/kg/injection, schedule: Q01DX009 (ip), vehicle: other, evaluated on day 30): 138, 144, 158 % of control
- T/C (dose: 25.0 mg/kg/injection, schedule: Q01DX009 (ip), vehicle: other, evaluated on day 45): 166 % of control
- T/C (dose: 50.0 mg/kg/injection, schedule: Q01DX009 (ip), vehicle: other, evaluated on day 30): 181 and 197 % of control
- T/C (dose: 50.0 mg/kg/injection, schedule: Q01DX009 (ip), vehicle: other, evaluated on day 45): 175 % of control
- survivor count (dose: 50.0 mg/kg/injection, schedule: Q01DX009 (ip), vehicle: other): 6 of 6
- T/C [1]: 125 % of control [5 of 6 alive]
- T/C (dose: 100.0 mg/kg/injection, schedule: Q01DX009 (ip), vehicle: other, evaluated on day 30): 100 and 103 % of control
- T/C (dose: 100.0 mg/kg/injection, schedule: Q01DX009 (ip), vehicle: other, evaluated on day 45): 129 % of control
- survivor count (dose: 100.0 mg/kg/injection, schedule: Q01DX009 (ip), vehicle: other): 6 of 6
- survivor count [2]: 5 of 6 (2×) and 6 of 6
- survivor count (dose: 200.0 mg/kg/injection, schedule: Q01DX009 (ip), vehicle: other): 4 of 6 and 6 of 6
- survivor count (dose: 400.0 mg/kg/injection, schedule: Q01DX009 (ip), vehicle: other): 0 of 6

Structure (SMILES): O=C1C=C(NCc2ccccc2)CCC1
- survivor count (dose: 12.5 mg/kg/injection, schedule: Q01DX009 (ip), vehicle: saline with Tween-80): 6 of 6
- survivor count [3]: 3 of 6

Structure (SMILES): CC(Cl)CN(Cc1cc(O)c(CN(CC(C)Cl)CC(C)Cl)cc1O)CC(C)Cl (configuration not stated)
- T/C [4]: 131 % of control
- T/C [5]: 137 % of control

Structure (SMILES): O=C(NCCCN1CC1)C(=O)NCCCN1CC1
- survivor count [6]: 4 of 6
- survivor count [7]: 0 of 6
- survivor count [3]: 0 of 6

Structure (SMILES): O=C(O)/C=C/c1cc2c(cc1[N+](=O)[O-])OCO2
- survivor count [8]: 6 of 6

Structure (SMILES): CCCCNC(C)(C)C(SC(C)=O)c1ccc(Cl)cc1 (configuration not stated)
- survivor count [9]: 3 of 6

Structure (SMILES): CCC1OC(=O)CC(O)C(C)C(OC2OC(C)C(O)C(N(C)C)C2O)C(CC=O)CC(C)C(=O)/C=C/C2(C)OC2C1C (configuration not stated)
- T/C (dose: 37.5 mg/kg/injection, schedule: Q01DX009 (ip), vehicle: Klucel (hydroxypropylcellulose) (HPC)): 134 % of control
- T/C (dose: 75.0 mg/kg/injection, schedule: Q01DX009 (ip), vehicle: Klucel (hydroxypropylcellulose) (HPC)): 133 % of control

Structure (SMILES): CC(C)C(=O)[O][Sn]([c]1ccccc1)([c]1ccccc1)[c]1ccccc1
- survivor count (dose: 25.0 mg/kg/injection, schedule: Q01DX009 (ip), vehicle: saline with Tween-80): 6 of 6
- survivor count [10]: 0 of 6

Structure (SMILES): COc1ccc(/C=C(/C)[N+](=O)[O-])cc1OC
- survivor count [5]: 5 of 6

Structure (SMILES): O.O.O=C(CC(=O)C(F)(F)F)C(F)(F)F.O=C(CC(=O)C(F)(F)F)C(F)(F)F.[Ni]
- T/C (dose: 100.0 mg/kg/injection, schedule: Q01DX001 (ip), vehicle: Klucel (hydroxypropylcellulose) (HPC)): 131 % of control [5 of 6 alive]
- survivor count (dose: 400.0 mg/kg/injection, schedule: Q01DX001 (ip), vehicle: Klucel (hydroxypropylcellulose) (HPC)): 1 of 6

Structure (SMILES): CSCCC1NC(=O)C(/C(C)=N\NC(N)=O)=C1O (configuration not stated)
- survivor count (dose: 400.0 mg/kg/injection, schedule: Q01DX009 (ip), vehicle: saline with Tween-80): 3 of 6

Structure (SMILES): CCCCCCCCO/N=C\c1c2c(O)c3c(O)c(C)c4c(c3c1O)C(=O)C(C)(O/C=C\C(OC)C(C)C(OC(C)=O)C(C)C(O)C(C)C(O)C(C)/C=C\C=C(\C)C(=O)N2)O4 (configuration not stated)
- survivor count [8]: 4 of 6

Structure (SMILES): Cc1ccc(S(=O)(=O)OC2CCC(C(C)(C)C)CC2Cl)cc1 (configuration not stated)
- survivor count [5]: 5 of 6

Structure (SMILES): Nc1ccc(N=Nc2ccccc2)c(N)n1
- survivor count [4]: 3 of 6

Structure (SMILES): COc1ccc([I+]c2ccccc2)cc1
- survivor count (dose: 12.5 mg/kg/injection, schedule: Q01DX009 (ip), vehicle: saline): 6 of 6
- survivor count [6]: 0 of 6
- survivor count (dose: 50.0 mg/kg/injection, schedule: Q04DX003 (ip), vehicle: saline sonified): 1 of 6

Structure (SMILES): Nc1ccn(CC(=O)c2ccc(Cl)s2)c(=O)n1
- survivor count (dose: 400.0 mg/kg/injection, schedule: Q01DX009 (ip), vehicle: water): 4 of 6

Structure (SMILES): [O]=[Cr](=[O])([OH])[O][Cr](=[O])(=[O])[OH]
- survivor count [6]: 3 of 6

Structure (SMILES): COC(=O)CCCC1=NC2=CC=CC3=NC(C)=NC(=N1)N23
- T/C [10]: 126 % of control

Structure (SMILES): C=CCCCC[P+](c1ccccc1)(c1ccccc1)c1ccccc1
- T/C (dose: 6.0 mg/kg/injection, schedule: Q01DX010 (ip), vehicle: saline): 140 and 140 % of control [4 of 6 alive]
- T/C (dose: 12.0 mg/kg/injection, schedule: Q01DX010 (ip), vehicle: saline): 131 % of control
- survivor count (dose: 24.0 mg/kg/injection, schedule: Q01DX010 (ip), vehicle: saline): 3 of 6
- survivor count (dose: 48.0 mg/kg/injection, schedule: Q01DX010 (ip), vehicle: saline): 0 of 6

Structure (SMILES): CCNC(C)(C)C(Cl)c1ccc(Cl)s1 (configuration not stated)
- survivor count [1]: 4 of 6
- survivor count (dose: 200.0 mg/kg/injection, schedule: Q04DX003 (ip), vehicle: saline with Tween-80): 4 of 6

Structure (SMILES): CC1=CCCC2(CCC3(C)CC32)C1(C)C (configuration not stated)
- T/C (dose: 200.0 mg/kg/injection, schedule: Q01DX009 (ip), vehicle: saline): 130 % of control

Structure (SMILES): COC1=C(N)C(=O)c2ncccc2C1=O
- T/C (dose: 16.0 mg/kg/injection, schedule: Q01DX010 (ip), vehicle: acetone): 127 % of control
- survivor count (dose: 32.0 mg/kg/injection, schedule: Q01DX010 (ip), vehicle: acetone): 0 of 6

Structure (SMILES): NS(=O)(=O)O
- survivor count [7]: 6 of 6

Structure (SMILES): Cc1cc(C)[n+](C)c2cc3ccccc3cc12
- T/C (dose: 25.0 mg/kg/injection, schedule: Q01DX005 (ip), vehicle: saline with Tween-80): 126 % of control
- survivor count (dose: 100.0 mg/kg/injection, schedule: Q01DX005 (ip), vehicle: saline with Tween-80): 2 of 5

Structure (SMILES): COc1cccc(Sc2ccc([N+](=O)[O-])c3no[n+]([O-])c23)c1
- survivor count (dose: 15.0 mg/kg/injection, schedule: Q01DX009 (ip), vehicle: saline with Tween-80): 5 of 7

Structure (SMILES): CC[C@H](CC[C@@H](C)[C@H]1CC[C@H]2[C@@H]3CC=C4C[C@@H](OC(=O)CSC(CC(=O)O)C(=O)O)CC[C@]4(C)[C@H]3CC[C@]12C)C(C)C (some centres not stated)
- survivor count [8]: 5 of 6

Structure (SMILES): Cc1ccc(C2NC(=S)N3C(c4ccc(C)cc4)NC(=S)N23)cc1 (configuration not stated)
- T/C (dose: 265.0 mg/kg/injection, schedule: Q01DX009 (ip), vehicle: saline): 129 % of control

Structure (SMILES): Cc1nc(Br)c2cnccn12
- survivor count [7]: 2 of 6

Structure (SMILES): COc1ccc(CNCC(=O)OCc2ccccc2)cc1
- survivor count [9]: 2 of 6

Structure (SMILES): CNC(=S)N/N=C(\C)c1ccccn1
- survivor count [10]: 2 of 6 on day 9
- survivor count (dose: 100.0 mg/kg/injection, schedule: Q01DX009 (ip), vehicle: saline with Tween-80): 0 of 6 on day 9

Structure (SMILES): Nc1nc(CCl)nc(Nc2ccccc2)n1
- survivor count [2]: 3 of 6
- survivor count [8]: 0 of 6
